# Measured data: PubChem BioAssay AID1259308 (NCATS, 2017)
# Purpose: 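Genes whose loss raises luciferase production in HEK293 cells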 (primary screen)
# Cells: human HEK293 embryonic kidney cells stably expressing firefly luciferase (HEK-CMV-Luc2-Hygro)
# Knock-down reagent: single siRNA against human genes, 0.8 pmol siRNA per well
# Timing: 72 h
# Measured: 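Luciferase light (ONE-Glo) measured on one replicate plate set and viability (CellTiter-Glo) on the other, scaled to a negative control siRNA, with robust z-scores and luciferase per cell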
# Direction: total luciferase, z-score and total luciferase, % of control: higher = more reporter protein produced
# Active means: 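An siRNA counts as active if its total luciferase robust z-score exceeds 3; genes with two or more such siRNAs out of three were retested with fresh siRNAs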
# Calls: active = raised luciferase; inactive = no rise
# In all, the deposit lists about 59,000 reagents; shown is a random part of them. In the full data, about 1,510 (2.6%) are marked active. 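Calls use total luciferase alone and ignore viability, so some active siRNAs may act by altering cell number.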 Entries without a mark were called inactive. The numbers tell different reagents against one gene apart. Not all columns of the deposit are shown.
gene,reagent no.,"total luciferase, z-score","total luciferase, % of control"
BAIAP2L2,1,-1.61,49.8
BAIAP2L2,2,-0.165,78.6
BAIAP2L2,3,1.37,109
FAM25EP,1,0.362,89.1
FAM25EP,2,-1.16,58.8
FAM25EP,3,1.05,103
BIRC2,1,3.22 (active),146
BIRC2,2,0.707,95.9
BIRC2,3,-0.91,63.8
CRIPAK (retired record),1,-0.637,69.2
CRIPAK (retired record),2,-0.775,66.5
CRIPAK (retired record),3,0.211,86.1
TCEAL1,1,-0.0878,80.1
TCEAL1,2,0.0904,83.7
TCEAL1,3,-1.04,61.2
GPRASP2,1,0.0379,82.6
GPRASP2,2,-0.748,67
GPRASP2,3,1.86,119
RPL6,1,-2.94,23.3
RPL6,2,-1.94,43.3
RPL6,3,-3.24,17.5
MASP2,1,2.07,123
MASP2,2,-1.35,55
MASP2,3,0.0686,83.3
CCDC150,1,1.07,103
CCDC150,2,-1.66,48.8
CCDC150,3,1.32,108

Records listed above called active:
gene,reagent no.,"total luciferase, z-score","total luciferase, % of control"
BIRC2,1,3.22 (active),146

The list goes on.
gene,reagent no.,"total luciferase, z-score","total luciferase, % of control"
ZNF302,1,0.0172,82.2
ZNF302,2,-0.551,70.9
ZNF302,3,0.976,101
RANBP3,1,-1.08,60.3
RANBP3,2,-1.31,55.8
RANBP3,3,0.814,98.1
GPN1,1,-2.69,28.3
GPN1,2,-1.92,43.7
GPN1,3,-1.13,59.5
CTDSPL,1,0.3,87.8
CTDSPL,2,-0.796,66.1
CTDSPL,3,-0.215,77.6
NSUN5P2,1,-0.504,71.9
NSUN5P2,2,-3.14,19.5
NSUN5P2,3,0.708,96
SLC45A4,1,-0.0742,80.4
SLC45A4,2,0.255,87
SLC45A4,3,4.75 (active),176
TRIM26,1,0.371,89.3
TRIM26,2,1.56,113
TRIM26,3,1.46,111
ANKRD39,1,0.159,85.1
ANKRD39,2,0.578,93.4
ANKRD39,3,2.16,125
OR6V1,1,1.25,107
OR6V1,2,1.76,117
OR6V1,3,0.122,84.3
GFRAL,1,2.18,125
GFRAL,2,-0.649,69
GFRAL,3,-0.128,79.3
